No constants are given. Whether binding was seen depends on the method and setting. Binding calls can cover weak binding; strength is not graded here.

The target of the assay is T1, fluorescein-labeled AID peptide, fluorescein-…-COOH.
T1 sequence (peptide, fluorescein attached at the amino-terminus): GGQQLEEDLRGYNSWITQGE
Briefly: fluorescence polarization, NusA-domain II fusion incubated with TEV protease and labeled peptide. A general note: Fluorescence polarisation rises when a labelled molecule tumbles more slowly, as on binding a larger partner.

As to VDCC β2a domain II (rabbit), the binding result was “binds”.

The record behind these values is patent US20050288489A1 (published 2005).
